Measured values reported in PubChem BioAssay AID2685 (National Center for Advancing Translational Sciences (NCATS), 2010).
The list shows a part of the results. The main result of the screen is listed elsewhere. These columns were measured beside it and carry no call. Compounds called inactive in the main read-out are mostly missing here. Potencies come from curve fits of mixed quality, noted in brackets.

Test: qHTS Assay for Lipid Storage Modulators in Drosophila S3 Cells;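 on cell number change: cells counted by Cell Tracker Red CMTPX staining in the red channel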
Details: BODIPY lipid droplet fluorescence, 18-24 h; for cell number change: measured here: cell count max response, cells fed with added oleic acid
Summary of the method: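 Drosophila S3 cells loaded with oleic acid (400 uM, as added) and compounds at several concentrations; lipid droplets imaged by 488-nm laser-scanning cytometry, 500–530 nm intensity and object ratio to cell channel. Percent activity normalized to 20 uM Triacsin C.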

[1] = measured here: cell number channel AC50, cells fed with added oleic acid
[2] = measured here: lipid fluorescence (Fed channel) AC50, cells fed with added oleic acid

| SMILES | cell number change [%] | AC50 [1] | AC50 [2] |
| --- | --- | --- | --- |
| CCCNC(=O)CSc1nccn1Cc1ccc(OC)cc1 | -1.14 |  |  |
| COCCN(CC(=O)Oc1ccccc1P(=O)(OC)OC)Cc1ccccc1 | -13 |  |  |
| O=C1/C(=C/c2ccc(N3CCCC3)cc2)NC(=S)N1C1CC1 | 5.69 |  |  |
| CCOC(=O)c1cccc(NC(=S)NC(=O)c2cccnc2)c1 | -37.8 | 29.1 µM [falling, single point] |  |
| O=C(O)COc1ccccc1/C=N/NC(=O)C(O)c1ccccc1 (stereo not drawn) | -0.794 |  | 6.51 µM [rising, single point] |
| CC1Cc2ccccc2N1CC(=O)Nc1ccc(N2CCOCC2)cc1 (stereo not drawn) | 9.49 |  | 2.91 µM [rising, single point] |
| COc1ccc(/C=C2\SC(=O)N(CCNC(=O)C3CSC4(C)CCC(=O)N34)C2=O)cc1 (stereo not drawn) | -13 |  | 0.00461 µM [falling, full curve, poor fit] |
| Cc1cc(C(=O)Nc2ccccc2)c2ccccc2n1 | -3.02 |  | 29.1 µM [rising, single point] |
| O=C(CCC(=O)N1CCOCC1)c1ccc(F)cc1 | -19.8 |  | 3.26 µM [falling, partial curve, poor fit] |
| O=C(O)CCSC(=S)N1CCOCC1 | 8.64 |  |  |
| Cc1csc(C(=O)NCC(=O)NNC(=O)c2cccc(Cl)c2)c1 | -0.379 |  | 6.51 µM [rising, single point] |
| COC(=O)c1ccc(C(=O)OC)c(NC(=S)N2CCC(C(N)=O)CC2)c1 | -40.8 | 0.58 µM [falling, full curve] |  |
| CCCS(=O)(=O)N1CCN(C(=O)COc2ccc(OC)cc2)CC1 | 43.7 | 9.2 µM [rising, partial curve] |  |
| Cc1ccc(C(=O)Nc2cccnc2)cc1NC(=O)c1ccco1 | 10.1 | 0.0291 µM [rising, full curve, poor fit] |  |
| CSc1ccc(CN(C)CC(=O)NCc2ccc(F)cc2)cc1 | 144 | 25.9 µM [rising, partial curve] | 20.6 µM [rising, single point] |
| CCC(=O)N1c2ccccc2C(N(C(=O)CC)c2ccccc2)CC1C (stereo not drawn) | 10.5 |  | 4.11 µM [rising, partial curve, poor fit] |
| COc1cc(/C=C(\C#N)c2nc3ccccc3[nH]2)ccc1O | -46.1 | 13 µM [falling, partial curve] | 14.6 µM [falling, partial curve] |
| CCC(C)NC(=O)Cn1cnc([N+](=O)[O-])c1 (stereo not drawn) | 1.65 |  | 18.4 µM [rising, single point] |
| COCCNc1nc(Cl)c(C#N)s1 | 8.27 |  | 0.092 µM [falling, full curve, poor fit] |
| COc1cccc(C(=O)COC(=O)C2CC3CCCC(C2)C3=O)c1 (stereo not drawn) | -15.7 | 6.51 µM [falling, single point] | 6.51 µM [falling, single point] |
| O=C(Cc1ccccc1)Nc1cccc(-c2nc3ncccc3o2)c1 | -171 | 29.1 µM [falling, single point] |  |

| SMILES | cell number change [%] | AC50 [1] | AC50 [2] |
| --- | --- | --- | --- |
| COC(=O)c1ccc(/C=C(\C#N)c2nc3ccccc3s2)cc1 | 40.1 | 18.4 µM [rising, partial curve] | 4.11 µM [rising, full curve, poor fit] |
| Cc1occc1C(=O)N1CCN(S(=O)(=O)c2ccc(F)cc2)CC1 | -47.5 | 16.4 µM [falling, single point] | 29.1 µM [falling, single point] |
| CCc1ccc(NC(=O)C(C)Sc2nc(-c3ccco3)c(C#N)c(=O)[nH]2)cc1 (stereo not drawn) | 46.7 |  | 23.1 µM [rising, single point] |
| CC(=O)N1CCN(c2ccccc2NC(=S)NC(=O)c2cc3ccccc3o2)CC1 | -32.2 | 2.59 µM [falling, full curve, poor fit] |  |
| COc1ccc(CNC(=O)C2=CC(c3ccc(C)cc3)=NS(=O)(=O)N2C)cc1 | 12.1 |  |  |
| CCCCC(=O)NC(c1ccc(Cl)cc1Cl)c1ccc2cccnc2c1O (stereo not drawn) | -25.3 |  | 29.1 µM [rising, single point] |
| CN(CC(=O)Nc1cccc2ccccc12)c1ccc(S(=O)(=O)N2CCOCC2)cn1 | 31.1 | 29.1 µM [rising, single point] | 29.1 µM [falling, single point] |
| Cc1c(/C(O)=C2\C(=O)C(=O)N(CCCN(C)C)C2c2ccncc2)cnn1-c1ccccc1 (stereo not drawn) | 18.8 |  |  |
| O=C(CCNC(=O)c1ccccc1Cl)NCCc1ccc(C(F)(F)F)cc1 | 15.8 | 6.51 µM [rising, single point] |  |
| O=C(CCC1CCCN(C(=O)c2ccccc2Cl)C1)N1CCN(c2ccccn2)CC1 (stereo not drawn) | -6.11 |  | 6.51 µM [falling, partial curve, poor fit] |
| N#Cc1c([N+](=O)[O-])cc([N+](=O)[O-])cc1S(=O)(=O)Cc1ccccc1 | -91.6 | 4.11 µM [falling, full curve] | 6.51 µM [falling, single point] |
| Fc1cccc(NC(=S)NCc2ccccn2)c1 | -24.8 | 6.51 µM [rising, partial curve, poor fit] | 6.51 µM [rising, single point] |
| CCC1CCCCN1CCCNC(=O)c1cn(CC)c2ccc(S(=O)(=O)N(C)C3CCCCC3)cc2c1=O (stereo not drawn) |  |  | 0.731 µM [falling, single point] |
| Cc1ccc(NC(=O)Cn2c(=O)n(Cc3ccco3)c(=N)c3c4c(sc32)COC(C)(C)C4)cc1 | 11.8 |  | 2.59 µM [rising, partial curve] |
| CN(C)C(=O)CSc1nnc(-c2ccc(S(=O)(=O)N3CCCC3)cc2)n1C |  |  | 29.1 µM [rising, single point] |
| Cc1ccccc1OCC(=O)NCC(=O)N/N=C/C=C/c1ccccc1 | 58.2 | 5.8 µM [rising, partial curve] | 11.6 µM [rising, partial curve] |
| CCCCCCCCCCC(=O)NNC(=O)c1c(O)c2ccccc2n(CC)c1=O | -17.7 |  | 29.1 µM [falling, single point] |
| CC(=O)C(C(C)=O)C1(O)C(=O)c2ccccc2C1=O | -21.9 |  | 29.1 µM [falling, single point] |
| Cc1onc(-c2ccccc2)c1C(=O)Nc1sc2c(c1C(N)=O)CCC2 | -8.68 |  | 25.9 µM [falling, single point] |
| CCOc1cc(/C=N/NC(=O)c2cc(C)[nH]n2)ccc1OC(=O)c1ccc([N+](=O)[O-])cc1 | -14.3 |  |  |
| CCOC(=O)c1csc(NC(=O)CN2CCCCC2)n1 | -7.7 |  | 0.146 µM [falling, full curve, poor fit] |

As entered above.
`O=C(O)COc1ccccc1/C=N/NC(=O)C(O)c1ccccc1` (stereo not drawn) | AC50 [2]: 6.51 µM [rising, single point]
`CN(C)C(=O)CSc1nnc(-c2ccc(S(=O)(=O)N3CCCC3)cc2)n1C` | AC50 [2]: 29.1 µM [rising, single point]
`Cc1c(/C(O)=C2\C(=O)C(=O)N(CCCN(C)C)C2c2ccncc2)cnn1-c1ccccc1` (stereo not drawn) | cell number change [%]: 18.8
`CCCNC(=O)CSc1nccn1Cc1ccc(OC)cc1` | cell number change [%]: -1.14

More entries follow:

| SMILES | cell number change [%] | AC50 [1] | AC50 [2] |
| --- | --- | --- | --- |
| Cc1ccc(C)c(-n2c(SCC(=O)NCC3CCCO3)nnc2-c2ccoc2C)c1 (stereo not drawn) | 8.02 | 7.31 µM [rising, partial curve, poor fit] |  |
| COCCNC(=O)CSc1nc(N)c(NC(=O)c2ccccc2F)c(=O)[nH]1 | -1.49 |  | 8.2 µM [rising, partial curve, poor fit] |
| COc1ccccc1NS(=O)(=O)c1ccc(N/N=C/C=C/c2ccccc2[N+](=O)[O-])c([N+](=O)[O-])c1 | -19.5 |  | 8.2 µM [falling, partial curve] |
| Cc1ccc(S(=O)(=O)N2CCN(C(=O)COC(=O)CCOc3ccccc3)CC2)c(C)c1 | -45.2 | 18.4 µM [falling, single point] | 18.4 µM [falling, single point] |
| COCCNC(=O)c1cc(Sc2nnc(C)s2)nc2ccccc12 |  | 0.82 µM [rising, single point] |  |
| O=C(NCc1nc(-c2ccccc2)no1)Nc1ccc(F)cc1 | -13 |  | 0.13 µM [falling, partial curve, poor fit] |
| Cc1cc(NC(=O)c2cc(-c3cccnc3)nc3c(C)c(C)ccc23)no1 | -27.4 |  |  |
| O=C1OCCC1Sc1nc2ccccc2c(=O)n1Cc1ccc(F)cc1 (stereo not drawn) | 18.5 |  |  |
| COc1ccccc1Oc1ccc2c(c1)C(=O)N(CC1CCCO1)C2=O (stereo not drawn) | -35.1 | 20.6 µM [falling, single point] | 29.1 µM [falling, single point] |
| Cc1ccc(N(CC(=O)NCc2cccnc2)S(C)(=O)=O)cc1C | -0.501 |  | 13 µM [falling, partial curve] |
| O=C(NC12CC3CC(CC(C3)C1)C2)C1CCCN1C(=O)Nc1ccccc1 (stereo not drawn) | 16.7 |  |  |
| Cc1ccc(C(O)(C(=O)NNS(=O)(=O)c2ccc(C)cc2)c2ccc(C)cc2)cc1 | -21.8 |  | 0.58 µM [rising, partial curve, poor fit] |
| COc1ccc2oc(C(=O)OCC(=O)N3CCCC(C)C3)c(C)c2c1 (stereo not drawn) | 1.04 |  |  |
| C=CCn1c(=O)c(C(=O)NCCNCC)c(O)c2ccccc21 | -4.4 |  |  |
| O=C(CN1CCCCC1)Nc1ccc(F)c(Cl)c1 | -4.07 |  | 3.66 µM [rising, single point] |
| Cc1cc(C(=O)Nc2nccs2)c2cc(F)ccc2n1 | 46.5 | 2.06 µM [rising, partial curve] | 2.06 µM [rising, full curve] |
| N=C1c2ccccc2CN1NC(=O)CC12CC3CC(CC(C3)C1)C2 | 18.1 |  |  |
| O=C(COC(=O)c1cccc(S(=O)(=O)N2CCCCCC2)c1)NCc1ccc(Cl)cc1 |  | 3.26 µM [falling, single point] | 6.51 µM [falling, single point] |
| Cc1ccc(NC(=O)c2cccc(OCc3c(C)noc3C)c2)c(C)c1 |  | 0.0731 µM [rising, full curve, poor fit] | 4.11 µM [rising, single point] |
